Experimental data reported in PubChem BioAssay AID2685 (National Center for Advancing Translational Sciences (NCATS), 2010).
Some of the results follow. Shown are side measurements of this screen, not its main read-out; they come without a call. The list favours compounds with an active or inconclusive main result. The note in brackets gives the kind of curve behind each potency; many fits are weak.

Experiment: qHTS Assay for Lipid Storage Modulators in Drosophila S3 Cells;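 for cell number change: cells counted by Cell Tracker Red CMTPX staining in the red channel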
Settings: BODIPY lipid droplet fluorescence, 18-24 h; for cell number change: measured here: cell count max response, cells fed with added oleic acid
In short: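 Drosophila S3 cells loaded with oleic acid (400 uM, as added) and compounds at several concentrations; lipid droplets imaged by 488-nm laser-scanning cytometry, 500–530 nm intensity and object ratio to cell channel. Percent activity normalized to 20 uM Triacsin C.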

[1] = measured here: cell number channel AC50, cells fed with added oleic acid
[2] = measured here: lipid fluorescence (Fed channel) AC50, cells fed with added oleic acid

SMILES | cell number change | AC50 [1] | AC50 [2]
CCNc1ccc(Br)cc(C(=O)/C=C/c2ccc(Cl)cc2)c1=O | -75.5% | 18.4 µM [falling, partial curve] | 14.6 µM [falling, partial curve]
Clc1cccc(Cl)c1CSc1nnc(-c2sccc2-n2cccc2)o1 | 8.77% | – | 0.0116 µM [falling, full curve, poor fit]
Cc1csc(SCC(=O)Nc2cccc3nsnc23)n1 | 54% | 7.31 µM [rising, partial curve] | 10.3 µM [rising, partial curve]
COc1cnc(-c2ccccn2)nc1Oc1ccccc1 | -38% | 2.91 µM [falling, partial curve] | 6.51 µM [falling, partial curve, poor fit]
Cc1cc(C)cc(OCC(=O)OCC(=O)Nc2c(C)n(C)n(-c3ccccc3)c2=O)c1 | – | 0.82 µM [rising, single point] | 5.8 µM [falling, single point]
CCCCOc1ccc(C(NC(=O)OCC)NC(=O)OCC)cc1 | 66.7% | 7.31 µM [rising, partial curve] | 2.59 µM [rising, single point]
Cc1csc(=O)n1CC(=O)OCc1nnc(-c2ccc(Cl)cc2)o1 | – | – | 0.58 µM [falling, single point]
CC1CCCCC12NC(=O)N(CC(=O)NCCc1ccc(S(N)(=O)=O)cc1)C2=O (centres undefined) | 14.9% | – | 3.66 µM [rising, single point]
Cc1ccc(CN2CCC(n3nccc3NC(=O)C3CCOC3)CC2)cc1C (centres undefined) | 3.5% | – | –
Cc1cc(=O)[nH]c(N/N=C/c2ccc(OC(=O)c3ccco3)cc2)n1 | -23.6% | – | 1.03 µM [falling, partial curve]
COc1cc(/C=N/NC(=O)c2cc(C)oc2C)ccc1O | 4.07% | – | 0.00411 µM [rising, full curve, poor fit]
COc1ccc(OCC(=O)NNC(=O)c2cc3ccccc3o2)cc1 | – | – | 23.1 µM [rising, single point]
Cn1nnnc1SCC(=O)Nc1cc(S(=O)(=O)N2CCCC2)ccc1Cl | 38.1% | – | –
Cc1nonc1OCCNc1ccc([N+](=O)[O-])cc1[N+](=O)[O-] | 13% | 3.26 µM [falling, single point] | 6.51 µM [falling, single point]
CCOc1cc(Cl)c(S(=O)(=O)NCc2cccnc2)cc1Cl | – | 0.651 µM [falling, single point] | –
CCCCNC(=O)CSc1nnc(-c2ccco2)n1C | 13.5% | 6.51 µM [rising, single point] | –
CC(NC(=O)C12CC3CC(CC(C3)C1)C2)c1ccc2c(c1)OCCO2 (centres undefined) | -97.1% | 25.9 µM [falling, partial curve, poor fit] | 0.651 µM [falling, partial curve, poor fit]
Cc1ccc(CN2C(=O)/C(=C\c3ccc(C(=O)NCc4cccnc4)cc3)Oc3ccccc32)cc1 | -39.6% | 18.4 µM [falling, partial curve] | 14.6 µM [falling, partial curve]

SMILES | cell number change | AC50 [1] | AC50 [2]
CCCCOC(=O)Nc1nnc(CC)s1 | 58.6% | 18.4 µM [rising, single point] | –
CCCCCc1ccc(-c2cn(Cc3ccc([N+](=O)[O-])cc3)nn2)cc1 | – | – | 2.91 µM [rising, single point]
Cc1c(CCC(=O)NCC(=O)NCC(=O)O)c(=O)oc2cc3oc4c(c3cc12)CCCC4 | -17.1% | – | 29.1 µM [falling, single point]
Clc1ccsc1-c1csc(-c2cccnc2)n1 | – | 2.59 µM [rising, partial curve] | 4.61 µM [rising, full curve]
O=C(C1CCN(S(=O)(=O)c2ccccc2)CC1)N1CCN(Cc2ccc3c(c2)OCO3)CC1 | 19.8% | 7.31 µM [rising, partial curve, poor fit] | –
C[C@@H]1O[C@@H](O[C@H]2[C@H](O)[C@@H](O)[C@H](Oc3c(-c4ccc(O)c(O)c4)oc4cc(O)cc(O)c4c3=O)O[C@@H]2CO)[C@H](O)[C@H](O)[C@H]1O | 14.1% | – | 0.116 µM [falling, full curve, poor fit]
CCN(CC(=O)Nc1ccccc1C(F)(F)F)C(=O)C1CCC1 | -18.7% | – | 0.103 µM [falling, full curve]
CC(C)OCCCN(C)C1CCN(S(=O)(=O)c2ccc(-c3cc(C(F)(F)F)no3)s2)CC1 | 4.94% | – | –
COc1ccc([C@H]2CC(=O)C=C(c3ccc(OC)nc3)C2)cc1 | -14.4% | – | 5.17 µM [falling, single point]
O=C(Nc1nnc(-c2ccc(F)cc2)o1)C1CCCN1S(=O)(=O)c1cccs1 (centres undefined) | -24.5% | – | –
COC(=O)c1ccc(CSc2nc3cc(Cl)ccc3s2)o1 | -12% | – | –
Brc1ccc2[nH]c3c(NCc4ccccn4)ncnc3c2c1 | -14.8% | – | –
CN(C)c1ccc(-c2nc3cc(N)ccc3o2)cc1 | -36.8% | 25.9 µM [falling, partial curve, poor fit] | 7.31 µM [falling, single point]
COc1ccc(CC(=O)Nc2ccc(-c3nnc(-c4ccccc4)o3)cc2)cc1 | – | – | 6.51 µM [falling, single point]
C/C(=N/OCC(=O)NCCCCCCNC(=O)CO/N=C(/C)c1cccs1)c1cccs1 | -50% | 2.06 µM [rising, partial curve] | 0.116 µM [rising, full curve, poor fit]
Cc1cc(Br)ccc1NC(=O)CN(C)C(=O)c1cc([N+](=O)[O-])ccc1N1CCOCC1 | -14.1% | – | –
Cc1cc(S(=O)(=O)NC2CCCCC2)ccc1OCC(=O)NCc1cccnc1 | – | 3.26 µM [rising, partial curve] | –
CC1CCN(C(=O)CSc2ccc(-c3ccc4c(c3)OCCO4)nn2)CC1 | 20.5% | 6.51 µM [rising, single point] | 5.17 µM [falling, single point]

One compound at a time (already shown). Order of values: cell number change	AC50 [1]	AC50 [2]
`COC(=O)c1ccc(CSc2nc3cc(Cl)ccc3s2)o1` is entered as -12%	–	–
`CCN(CC(=O)Nc1ccccc1C(F)(F)F)C(=O)C1CCC1` is entered as -18.7%	–	0.103 µM [falling, full curve]
